The record followed here is paper doi:10.1101/2021.02.09.430422.

These are yes or no findings as the source states them, for the method shown. Some results given as binding are weak or reduced against the parent protein; the word gives no strength. For some assays here: Sequences can lack the tags named with a protein.

Assay [1] deals with T1, Smc6-3C-Twin-Strep (S. cerevisiae) (UniProt Q12749).
T1 sequence: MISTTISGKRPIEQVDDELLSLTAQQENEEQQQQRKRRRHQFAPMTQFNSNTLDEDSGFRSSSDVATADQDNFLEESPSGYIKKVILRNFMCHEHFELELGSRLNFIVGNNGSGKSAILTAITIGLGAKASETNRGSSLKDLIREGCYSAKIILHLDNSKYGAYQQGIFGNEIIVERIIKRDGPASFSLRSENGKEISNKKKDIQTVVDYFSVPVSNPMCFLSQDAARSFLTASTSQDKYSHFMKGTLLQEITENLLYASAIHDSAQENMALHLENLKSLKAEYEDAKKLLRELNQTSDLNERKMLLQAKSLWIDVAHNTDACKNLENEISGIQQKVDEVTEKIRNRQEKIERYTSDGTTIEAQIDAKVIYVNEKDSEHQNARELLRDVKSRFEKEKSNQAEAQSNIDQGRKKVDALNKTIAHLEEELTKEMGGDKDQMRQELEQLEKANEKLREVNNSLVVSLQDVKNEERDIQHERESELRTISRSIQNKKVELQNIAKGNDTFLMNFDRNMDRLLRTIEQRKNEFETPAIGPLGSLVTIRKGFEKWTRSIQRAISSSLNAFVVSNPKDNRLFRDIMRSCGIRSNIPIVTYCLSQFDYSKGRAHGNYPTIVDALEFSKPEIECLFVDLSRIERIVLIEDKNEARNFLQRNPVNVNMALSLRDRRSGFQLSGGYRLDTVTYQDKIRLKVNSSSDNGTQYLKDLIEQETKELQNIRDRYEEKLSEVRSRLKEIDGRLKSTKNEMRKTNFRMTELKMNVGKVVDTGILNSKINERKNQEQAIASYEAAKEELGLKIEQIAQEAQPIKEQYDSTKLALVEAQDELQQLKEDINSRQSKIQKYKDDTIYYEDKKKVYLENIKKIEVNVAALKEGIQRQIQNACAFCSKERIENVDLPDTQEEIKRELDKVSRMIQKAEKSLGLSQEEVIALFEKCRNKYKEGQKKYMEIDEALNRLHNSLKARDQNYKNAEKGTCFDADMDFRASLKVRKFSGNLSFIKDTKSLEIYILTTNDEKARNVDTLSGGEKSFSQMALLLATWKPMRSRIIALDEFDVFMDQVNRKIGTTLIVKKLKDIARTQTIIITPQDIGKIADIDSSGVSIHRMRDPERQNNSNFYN
The assay can be described thus: co-purification after co-expression.

For the next assay, the target named is T2, Nse4 (S. cerevisiae) (UniProt P43124).
T2 sequence: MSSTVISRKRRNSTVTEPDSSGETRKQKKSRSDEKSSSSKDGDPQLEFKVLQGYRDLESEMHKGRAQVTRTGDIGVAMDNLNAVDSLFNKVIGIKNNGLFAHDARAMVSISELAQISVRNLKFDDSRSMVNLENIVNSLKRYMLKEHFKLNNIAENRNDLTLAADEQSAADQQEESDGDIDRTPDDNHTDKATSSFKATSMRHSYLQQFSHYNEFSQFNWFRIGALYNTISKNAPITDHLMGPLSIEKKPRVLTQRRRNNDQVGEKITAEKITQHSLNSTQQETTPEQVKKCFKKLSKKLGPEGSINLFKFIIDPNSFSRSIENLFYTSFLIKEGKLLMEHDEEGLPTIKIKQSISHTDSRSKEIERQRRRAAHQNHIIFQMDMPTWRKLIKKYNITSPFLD
The assay can be described thus: cross-linking.

The target in a further assay is T3, Smc5 (S. cerevisiae) (UniProt Q08204).
T3 sequence: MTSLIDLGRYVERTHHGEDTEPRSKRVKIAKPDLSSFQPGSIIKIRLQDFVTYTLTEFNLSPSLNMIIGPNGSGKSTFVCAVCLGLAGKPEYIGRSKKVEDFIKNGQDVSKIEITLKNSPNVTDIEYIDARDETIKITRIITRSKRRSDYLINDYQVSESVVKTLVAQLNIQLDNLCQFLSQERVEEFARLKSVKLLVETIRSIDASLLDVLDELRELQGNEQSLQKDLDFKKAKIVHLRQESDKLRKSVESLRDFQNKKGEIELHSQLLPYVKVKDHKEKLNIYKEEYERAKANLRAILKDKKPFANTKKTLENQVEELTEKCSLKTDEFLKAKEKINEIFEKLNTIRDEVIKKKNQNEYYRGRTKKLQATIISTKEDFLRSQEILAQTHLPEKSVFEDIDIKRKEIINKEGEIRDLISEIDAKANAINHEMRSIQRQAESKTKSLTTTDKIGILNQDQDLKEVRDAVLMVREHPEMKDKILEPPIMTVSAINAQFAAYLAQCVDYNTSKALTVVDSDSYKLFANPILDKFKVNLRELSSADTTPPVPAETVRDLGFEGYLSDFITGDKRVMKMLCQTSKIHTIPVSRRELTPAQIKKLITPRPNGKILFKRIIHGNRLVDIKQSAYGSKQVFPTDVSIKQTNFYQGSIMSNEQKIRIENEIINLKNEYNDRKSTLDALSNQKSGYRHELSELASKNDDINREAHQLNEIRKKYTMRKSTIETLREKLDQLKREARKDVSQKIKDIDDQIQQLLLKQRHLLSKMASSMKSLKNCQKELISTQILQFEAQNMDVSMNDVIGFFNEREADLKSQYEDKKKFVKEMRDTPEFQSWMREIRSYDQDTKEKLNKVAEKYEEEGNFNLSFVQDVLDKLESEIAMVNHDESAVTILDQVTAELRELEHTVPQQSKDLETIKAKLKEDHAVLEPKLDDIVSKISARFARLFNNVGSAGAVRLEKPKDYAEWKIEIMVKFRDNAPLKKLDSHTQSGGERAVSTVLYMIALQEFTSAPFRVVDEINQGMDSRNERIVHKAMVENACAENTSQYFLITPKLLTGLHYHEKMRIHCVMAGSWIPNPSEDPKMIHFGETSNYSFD
The assay can be described thus: cross-linking.

The target in assay [2] is T4, Smc6 (Twin-Strep tag removed, as in the octamer for XL-MS) (S. cerevisiae) (UniProt Q12749).
T4 sequence: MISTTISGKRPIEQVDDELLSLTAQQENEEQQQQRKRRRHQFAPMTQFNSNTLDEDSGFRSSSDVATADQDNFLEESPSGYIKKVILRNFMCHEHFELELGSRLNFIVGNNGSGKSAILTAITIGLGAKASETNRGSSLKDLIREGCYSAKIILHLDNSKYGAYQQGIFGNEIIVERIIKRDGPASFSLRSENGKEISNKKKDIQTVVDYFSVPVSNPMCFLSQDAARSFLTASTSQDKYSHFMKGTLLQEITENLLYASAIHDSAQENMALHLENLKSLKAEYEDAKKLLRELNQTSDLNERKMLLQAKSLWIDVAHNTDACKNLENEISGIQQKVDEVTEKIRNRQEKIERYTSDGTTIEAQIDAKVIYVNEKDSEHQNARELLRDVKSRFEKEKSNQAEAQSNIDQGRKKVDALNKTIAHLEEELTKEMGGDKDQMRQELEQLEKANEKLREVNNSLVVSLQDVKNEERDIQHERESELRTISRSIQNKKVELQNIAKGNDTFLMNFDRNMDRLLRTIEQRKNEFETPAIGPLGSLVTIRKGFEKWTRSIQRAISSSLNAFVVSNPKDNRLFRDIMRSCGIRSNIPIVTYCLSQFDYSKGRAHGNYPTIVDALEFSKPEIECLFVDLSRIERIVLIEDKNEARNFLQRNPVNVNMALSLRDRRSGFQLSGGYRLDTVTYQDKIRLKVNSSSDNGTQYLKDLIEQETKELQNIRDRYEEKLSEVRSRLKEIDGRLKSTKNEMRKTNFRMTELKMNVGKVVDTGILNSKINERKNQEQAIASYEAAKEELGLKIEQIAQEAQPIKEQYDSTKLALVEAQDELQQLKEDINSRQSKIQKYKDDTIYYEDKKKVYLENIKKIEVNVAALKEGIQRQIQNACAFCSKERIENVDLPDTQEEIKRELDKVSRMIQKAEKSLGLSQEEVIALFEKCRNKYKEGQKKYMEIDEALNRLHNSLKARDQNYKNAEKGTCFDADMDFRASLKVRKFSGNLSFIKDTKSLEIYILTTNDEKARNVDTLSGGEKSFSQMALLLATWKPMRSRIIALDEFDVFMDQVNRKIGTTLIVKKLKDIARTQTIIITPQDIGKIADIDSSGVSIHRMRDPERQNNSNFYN
The assay can be described thus: cross-linking.

The target in assay [3] is T1, Smc6-3C-Twin-Strep (S. cerevisiae). The assay can be described thus: cross-linking.

B1: Nse3 (protein, UniProt Q05541 1-303)
chain: MSSIDNDSDVDLTEDLAVAKIVKENPVARKMVRYILSRGESQNSIITRNKLQSVIHEAAREENIAKPSFSKMFMDINAILYNVYGFELQGLPSKNNMNAGGNGSNSNTNKSMPEPLGHRAQKFILLNNVPHSKNFDDFKILQSAHTYEELIVTGEYIGDDIASGTSNTLESKLSTDRDLVYKGVLSVILCIVFFSKNNILHQELIKFLETFGIPSDGSKIAILNITIEDLIKSLEKREYIVRLEEKSDTDGEVISYRIGRRTQAELGLESLEKLVQEIMGLEKEQTKSLHDDIIKSIGDSYSI
For B1, the binding result (in assay [1]; in the assay with Nse4 (S. cerevisiae); in the assay with Smc5 (S. cerevisiae); in assay [2]) was “binds” in each case.

B2: Smc5(N975C) (protein, UniProt Q08204 1-1093)
chain: MTSLIDLGRYVERTHHGEDTEPRSKRVKIAKPDLSSFQPGSIIKIRLQDFVTYTLTEFNLSPSLNMIIGPNGSGKSTFVCAVCLGLAGKPEYIGRSKKVEDFIKNGQDVSKIEITLKNSPNVTDIEYIDARDETIKITRIITRSKRRSDYLINDYQVSESVVKTLVAQLNIQLDNLCQFLSQERVEEFARLKSVKLLVETIRSIDASLLDVLDELRELQGNEQSLQKDLDFKKAKIVHLRQESDKLRKSVESLRDFQNKKGEIELHSQLLPYVKVKDHKEKLNIYKEEYERAKANLRAILKDKKPFANTKKTLENQVEELTEKCSLKTDEFLKAKEKINEIFEKLNTIRDEVIKKKNQNEYYRGRTKKLQATIISTKEDFLRSQEILAQTHLPEKSVFEDIDIKRKEIINKEGEIRDLISEIDAKANAINHEMRSIQRQAESKTKSLTTTDKIGILNQDQDLKEVRDAVLMVREHPEMKDKILEPPIMTVSAINAQFAAYLAQCVDYNTSKALTVVDSDSYKLFANPILDKFKVNLRELSSADTTPPVPAETVRDLGFEGYLSDFITGDKRVMKMLCQTSKIHTIPVSRRELTPAQIKKLITPRPNGKILFKRIIHGNRLVDIKQSAYGSKQVFPTDVSIKQTNFYQGSIMSNEQKIRIENEIINLKNEYNDRKSTLDALSNQKSGYRHELSELASKNDDINREAHQLNEIRKKYTMRKSTIETLREKLDQLKREARKDVSQKIKDIDDQIQQLLLKQRHLLSKMASSMKSLKNCQKELISTQILQFEAQNMDVSMNDVIGFFNEREADLKSQYEDKKKFVKEMRDTPEFQSWMREIRSYDQDTKEKLNKVAEKYEEEGNFNLSFVQDVLDKLESEIAMVNHDESAVTILDQVTAELRELEHTVPQQSKDLETIKAKLKEDHAVLEPKLDDIVSKISARFARLFNNVGSAGAVRLEKPKDYAEWKIEIMVKFRDCAPLKKLDSHTQSGGERAVSTVLYMIALQEFTSAPFRVVDEINQGMDSRNERIVHKAMVENACAENTSQYFLITPKLLTGLHYHEKMRIHCVMAGSWIPNPSEDPKMIHFGETSNYSFD
Turning to B2, the binding result in assay [3] is on record as “binds”.
